Data: the supplement of paper PMC10849652
The other results are listed elsewhere or left out.

The chains behind the UniProt entries cited, without tags or fusion partners. Where a name states a change or a piece, a line headed by the entry shows the natural chain unless it says otherwise.
UniProt Q8N0Y7: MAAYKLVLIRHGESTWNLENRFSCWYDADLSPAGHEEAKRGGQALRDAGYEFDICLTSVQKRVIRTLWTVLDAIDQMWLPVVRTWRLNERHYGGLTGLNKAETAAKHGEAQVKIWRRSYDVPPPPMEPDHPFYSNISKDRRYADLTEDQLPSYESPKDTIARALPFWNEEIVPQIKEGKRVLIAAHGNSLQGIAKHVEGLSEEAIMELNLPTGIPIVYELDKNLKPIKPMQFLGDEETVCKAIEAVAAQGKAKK
UniProt P60673: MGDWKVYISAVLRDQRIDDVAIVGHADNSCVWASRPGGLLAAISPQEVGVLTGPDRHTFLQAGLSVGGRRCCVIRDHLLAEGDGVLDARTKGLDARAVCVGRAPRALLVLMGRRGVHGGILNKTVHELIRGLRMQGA
UniProt Q15004: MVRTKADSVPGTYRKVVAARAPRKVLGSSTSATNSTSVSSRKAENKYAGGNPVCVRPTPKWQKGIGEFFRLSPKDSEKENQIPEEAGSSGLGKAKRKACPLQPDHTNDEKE
UniProt Q14554: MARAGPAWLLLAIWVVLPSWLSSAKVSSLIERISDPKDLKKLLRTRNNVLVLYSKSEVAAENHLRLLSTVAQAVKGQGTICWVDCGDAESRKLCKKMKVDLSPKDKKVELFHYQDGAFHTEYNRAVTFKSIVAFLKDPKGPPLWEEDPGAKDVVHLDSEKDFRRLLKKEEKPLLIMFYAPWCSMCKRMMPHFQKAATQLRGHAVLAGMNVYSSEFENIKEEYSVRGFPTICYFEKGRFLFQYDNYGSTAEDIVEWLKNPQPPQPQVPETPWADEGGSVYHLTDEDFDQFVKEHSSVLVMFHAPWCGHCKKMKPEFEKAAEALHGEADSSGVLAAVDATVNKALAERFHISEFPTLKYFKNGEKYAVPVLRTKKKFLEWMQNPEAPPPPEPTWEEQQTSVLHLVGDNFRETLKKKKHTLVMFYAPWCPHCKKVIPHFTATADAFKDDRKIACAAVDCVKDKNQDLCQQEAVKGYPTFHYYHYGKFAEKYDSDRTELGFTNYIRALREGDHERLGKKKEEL
UniProt P61457: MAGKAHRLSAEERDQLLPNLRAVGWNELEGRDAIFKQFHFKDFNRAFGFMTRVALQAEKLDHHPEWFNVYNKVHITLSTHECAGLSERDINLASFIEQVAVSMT
UniProt Q16875: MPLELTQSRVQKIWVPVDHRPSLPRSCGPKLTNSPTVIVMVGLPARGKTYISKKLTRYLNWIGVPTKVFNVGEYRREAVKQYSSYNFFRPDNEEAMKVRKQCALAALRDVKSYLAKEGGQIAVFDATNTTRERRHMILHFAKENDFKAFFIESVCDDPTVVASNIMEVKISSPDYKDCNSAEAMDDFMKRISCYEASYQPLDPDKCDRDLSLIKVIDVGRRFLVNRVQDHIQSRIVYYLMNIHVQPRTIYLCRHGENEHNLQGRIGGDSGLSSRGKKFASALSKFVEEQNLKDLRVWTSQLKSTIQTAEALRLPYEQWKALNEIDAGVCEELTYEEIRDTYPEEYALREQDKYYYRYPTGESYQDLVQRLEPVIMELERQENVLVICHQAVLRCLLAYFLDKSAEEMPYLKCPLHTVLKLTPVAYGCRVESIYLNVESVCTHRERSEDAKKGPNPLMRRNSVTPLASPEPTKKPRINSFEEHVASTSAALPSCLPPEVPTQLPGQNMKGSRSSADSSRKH
UniProt Q53EL6: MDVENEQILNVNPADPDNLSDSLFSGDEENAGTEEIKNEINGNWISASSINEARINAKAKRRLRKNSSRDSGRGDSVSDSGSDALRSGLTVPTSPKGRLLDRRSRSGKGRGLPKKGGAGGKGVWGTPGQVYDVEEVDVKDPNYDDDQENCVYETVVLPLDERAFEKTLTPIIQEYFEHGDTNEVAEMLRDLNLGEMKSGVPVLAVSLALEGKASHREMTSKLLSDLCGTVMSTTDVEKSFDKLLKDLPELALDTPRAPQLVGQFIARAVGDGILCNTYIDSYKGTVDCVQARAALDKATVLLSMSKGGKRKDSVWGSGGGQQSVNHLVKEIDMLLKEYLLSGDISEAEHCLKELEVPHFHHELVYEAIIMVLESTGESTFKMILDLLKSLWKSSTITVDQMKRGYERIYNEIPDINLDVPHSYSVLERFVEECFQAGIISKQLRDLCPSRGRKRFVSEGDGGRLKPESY
UniProt P16118: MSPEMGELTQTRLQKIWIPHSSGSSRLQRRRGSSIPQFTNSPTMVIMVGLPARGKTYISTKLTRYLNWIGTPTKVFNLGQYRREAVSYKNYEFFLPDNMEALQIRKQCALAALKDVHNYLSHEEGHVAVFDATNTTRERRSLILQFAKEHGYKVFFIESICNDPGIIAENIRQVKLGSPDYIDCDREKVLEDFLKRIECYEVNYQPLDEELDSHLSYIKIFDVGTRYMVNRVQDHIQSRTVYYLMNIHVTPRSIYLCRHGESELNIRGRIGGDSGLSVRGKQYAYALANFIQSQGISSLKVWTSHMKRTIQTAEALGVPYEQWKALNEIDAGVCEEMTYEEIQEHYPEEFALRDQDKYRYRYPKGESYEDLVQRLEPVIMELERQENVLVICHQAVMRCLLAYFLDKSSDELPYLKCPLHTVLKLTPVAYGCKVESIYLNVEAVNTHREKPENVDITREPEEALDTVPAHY
UniProt P28328: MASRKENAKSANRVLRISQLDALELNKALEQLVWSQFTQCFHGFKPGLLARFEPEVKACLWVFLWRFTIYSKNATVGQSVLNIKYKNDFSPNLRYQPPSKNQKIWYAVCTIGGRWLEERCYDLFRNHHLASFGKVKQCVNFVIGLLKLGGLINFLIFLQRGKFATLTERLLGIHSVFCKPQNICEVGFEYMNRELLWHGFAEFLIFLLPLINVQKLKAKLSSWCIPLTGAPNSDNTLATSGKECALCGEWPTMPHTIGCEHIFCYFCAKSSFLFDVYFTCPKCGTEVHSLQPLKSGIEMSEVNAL
UniProt Q96MG8: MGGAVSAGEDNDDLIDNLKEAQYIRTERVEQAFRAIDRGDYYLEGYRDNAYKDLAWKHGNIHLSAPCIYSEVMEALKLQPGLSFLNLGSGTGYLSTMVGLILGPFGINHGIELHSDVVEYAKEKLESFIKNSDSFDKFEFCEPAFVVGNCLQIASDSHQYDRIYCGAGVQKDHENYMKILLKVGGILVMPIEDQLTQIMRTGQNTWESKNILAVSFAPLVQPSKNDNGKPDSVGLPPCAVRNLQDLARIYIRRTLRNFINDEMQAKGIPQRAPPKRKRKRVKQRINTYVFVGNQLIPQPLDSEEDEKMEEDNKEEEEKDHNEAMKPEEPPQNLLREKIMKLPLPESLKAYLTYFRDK
UniProt Q15154: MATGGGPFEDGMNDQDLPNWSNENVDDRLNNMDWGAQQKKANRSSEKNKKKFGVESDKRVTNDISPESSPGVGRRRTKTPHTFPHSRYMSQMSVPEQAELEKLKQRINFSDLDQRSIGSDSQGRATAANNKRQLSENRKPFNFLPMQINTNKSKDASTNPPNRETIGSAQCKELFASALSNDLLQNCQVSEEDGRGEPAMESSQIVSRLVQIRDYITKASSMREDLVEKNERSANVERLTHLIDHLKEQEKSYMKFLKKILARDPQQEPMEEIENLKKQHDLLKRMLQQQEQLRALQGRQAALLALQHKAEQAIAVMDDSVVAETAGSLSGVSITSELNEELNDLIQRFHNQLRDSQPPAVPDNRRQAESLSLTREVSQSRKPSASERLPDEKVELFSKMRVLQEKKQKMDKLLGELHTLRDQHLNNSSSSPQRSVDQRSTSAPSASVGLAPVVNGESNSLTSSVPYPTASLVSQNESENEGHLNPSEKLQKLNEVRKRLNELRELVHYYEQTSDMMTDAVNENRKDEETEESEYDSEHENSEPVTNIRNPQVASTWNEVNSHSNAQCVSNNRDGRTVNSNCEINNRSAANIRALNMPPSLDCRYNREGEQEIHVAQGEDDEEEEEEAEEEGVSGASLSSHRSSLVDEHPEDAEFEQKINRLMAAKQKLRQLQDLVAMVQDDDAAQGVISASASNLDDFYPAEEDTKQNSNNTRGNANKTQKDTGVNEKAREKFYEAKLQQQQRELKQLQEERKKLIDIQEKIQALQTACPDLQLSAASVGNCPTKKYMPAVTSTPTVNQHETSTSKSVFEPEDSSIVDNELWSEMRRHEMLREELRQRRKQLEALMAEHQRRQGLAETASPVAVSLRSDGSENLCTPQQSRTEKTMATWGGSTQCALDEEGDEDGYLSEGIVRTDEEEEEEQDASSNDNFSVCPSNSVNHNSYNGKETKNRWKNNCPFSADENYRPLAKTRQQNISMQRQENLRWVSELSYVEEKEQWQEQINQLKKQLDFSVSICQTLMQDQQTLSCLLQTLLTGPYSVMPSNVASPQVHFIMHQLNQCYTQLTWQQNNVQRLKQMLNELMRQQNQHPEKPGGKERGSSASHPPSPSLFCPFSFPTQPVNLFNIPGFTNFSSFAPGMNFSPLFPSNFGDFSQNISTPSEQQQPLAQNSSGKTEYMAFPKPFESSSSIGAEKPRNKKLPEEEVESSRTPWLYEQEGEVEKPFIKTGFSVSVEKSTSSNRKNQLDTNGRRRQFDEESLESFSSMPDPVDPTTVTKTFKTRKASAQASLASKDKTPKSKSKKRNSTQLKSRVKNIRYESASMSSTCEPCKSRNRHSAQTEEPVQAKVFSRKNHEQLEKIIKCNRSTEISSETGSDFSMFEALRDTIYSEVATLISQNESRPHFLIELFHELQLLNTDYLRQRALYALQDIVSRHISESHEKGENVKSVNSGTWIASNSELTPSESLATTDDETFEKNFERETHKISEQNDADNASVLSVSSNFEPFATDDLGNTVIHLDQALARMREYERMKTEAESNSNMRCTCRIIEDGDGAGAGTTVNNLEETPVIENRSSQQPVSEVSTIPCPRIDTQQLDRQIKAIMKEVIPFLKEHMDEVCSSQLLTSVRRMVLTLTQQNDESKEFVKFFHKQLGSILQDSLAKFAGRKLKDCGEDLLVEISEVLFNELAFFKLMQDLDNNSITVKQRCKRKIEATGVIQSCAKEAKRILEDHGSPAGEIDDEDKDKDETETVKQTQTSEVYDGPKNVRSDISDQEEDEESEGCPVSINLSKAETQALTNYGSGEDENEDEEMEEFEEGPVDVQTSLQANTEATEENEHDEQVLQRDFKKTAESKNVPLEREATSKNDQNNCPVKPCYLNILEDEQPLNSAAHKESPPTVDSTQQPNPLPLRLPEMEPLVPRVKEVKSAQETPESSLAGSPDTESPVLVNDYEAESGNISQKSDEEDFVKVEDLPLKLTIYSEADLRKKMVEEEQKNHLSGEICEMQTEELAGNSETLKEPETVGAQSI
UniProt O15055: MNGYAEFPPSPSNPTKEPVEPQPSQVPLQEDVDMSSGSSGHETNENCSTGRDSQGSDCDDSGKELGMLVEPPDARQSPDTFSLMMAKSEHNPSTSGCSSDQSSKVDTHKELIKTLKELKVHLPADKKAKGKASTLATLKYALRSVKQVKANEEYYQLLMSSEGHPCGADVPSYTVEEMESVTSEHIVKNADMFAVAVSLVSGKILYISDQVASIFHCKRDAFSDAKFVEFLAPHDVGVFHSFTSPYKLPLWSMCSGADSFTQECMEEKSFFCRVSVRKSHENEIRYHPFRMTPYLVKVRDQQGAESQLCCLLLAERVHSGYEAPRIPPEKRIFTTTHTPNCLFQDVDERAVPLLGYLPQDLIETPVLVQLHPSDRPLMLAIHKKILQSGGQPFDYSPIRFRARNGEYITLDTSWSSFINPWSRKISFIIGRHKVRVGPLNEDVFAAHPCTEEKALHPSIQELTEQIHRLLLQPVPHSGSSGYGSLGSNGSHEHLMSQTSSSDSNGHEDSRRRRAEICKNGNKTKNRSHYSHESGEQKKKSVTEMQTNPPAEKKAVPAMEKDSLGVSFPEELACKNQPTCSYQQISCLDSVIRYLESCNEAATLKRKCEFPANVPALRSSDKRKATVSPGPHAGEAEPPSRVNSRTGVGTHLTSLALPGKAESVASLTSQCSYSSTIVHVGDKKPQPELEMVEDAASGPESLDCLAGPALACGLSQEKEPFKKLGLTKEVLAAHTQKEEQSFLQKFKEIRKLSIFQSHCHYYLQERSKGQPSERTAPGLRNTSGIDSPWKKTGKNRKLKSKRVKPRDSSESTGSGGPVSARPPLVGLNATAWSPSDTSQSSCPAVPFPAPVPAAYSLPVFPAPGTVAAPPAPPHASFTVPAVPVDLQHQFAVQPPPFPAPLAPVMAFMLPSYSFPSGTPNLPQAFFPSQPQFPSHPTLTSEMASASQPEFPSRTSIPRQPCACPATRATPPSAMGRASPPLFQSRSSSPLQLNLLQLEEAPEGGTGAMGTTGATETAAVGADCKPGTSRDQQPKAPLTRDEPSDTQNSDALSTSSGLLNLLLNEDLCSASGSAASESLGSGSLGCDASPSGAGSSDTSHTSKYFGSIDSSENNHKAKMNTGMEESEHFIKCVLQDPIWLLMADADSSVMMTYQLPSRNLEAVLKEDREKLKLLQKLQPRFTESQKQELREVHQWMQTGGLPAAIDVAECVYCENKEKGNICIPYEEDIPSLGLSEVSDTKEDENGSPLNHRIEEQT

Key:
Assay in all cases: log2 fold change, soluble protein after heating vs DMSO (PISA); higher = thermal stabilisation; K562 lysate, 10 uM; active = over 0.2 and 3.5 SD of the protein, either way, in both replicates (recomputed)
vemurafenib = compound: CCCS(=O)(=O)Nc1ccc(F)c(C(=O)c2c[nH]c3ncc(-c4ccc(Cl)cc4)cc23)c1F [vemurafenib]
In short: (§1)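 Thermal stability, expressed as log-two fold change relative to solvent controls, is given from duplicates. Crude K562 extract in PBS pH 7.4 with 1 mM MgCl2, at 1 mg/mL protein, was treated with 10 μM compound for 30 min and heated in aliquots for 3 min across 48°C-58°C. After pooling, adjustment to 0.5% NP-40 at 4°C and centrifugation at 21,000xg for 90 min, supernatant protein was measured by TMTpro 16plex LC-MS/MS with channel sums equalised.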

[1] = compound: CCCS(=O)(=O)Nc1ccc(F)c(C(=O)c2c[nH]c3ncc(Cl)cc23)c1F
In short: as §1

barasertib = compound: CCN(CCCOc1ccc2c(Nc3cc(CC(=O)Nc4cccc(F)c4)[nH]n3)ncnc2c1)CCOP(=O)(O)O [barasertib]
In short: as §1

[2] = compound: CC[C@@H]1C(=O)N(C)c2cnc(Nc3ccc(C(=O)NC4CCN(C)CC4)cc3OC)nc2N1C1CCCC1
In short: as §1

volasertib = compound: CC[C@@H]1C(=O)N(C)c2cnc(Nc3ccc(C(=O)N[C@H]4CC[C@H](N5CCN(CC6CC6)CC5)CC4)cc3OC)nc2N1C(C)C [volasertib]
In short: as §1

[3] = compound: CCn1c(C(=O)N(C2CC2)C2CC2)cc2c3c(ncn3C)c(Nc3cc(C)n(C)n3)nc21
In short: as §1

[4] = compound: CCn1cc(-c2ccnc3[nH]c(-c4cccc(CN(C)C)c4)cc23)c(-c2ccc(NC(=O)N(C)C)cc2)n1
In short: as §1

[5] = compound: CN1CCC(CNc2ccc3ncc(-c4cccc(OC(F)(F)F)c4)n3n2)CC1
In short: as §1

saracatinib = compound: CN1CCN(CCOc2cc(OC3CCOCC3)c3c(Nc4c(Cl)ccc5c4OCO5)ncnc3c2)CC1 [saracatinib]
In short: as §1

sotrastaurin = compound: CN1CCN(c2nc(C3=C(c4c[nH]c5ccccc45)C(=O)NC3=O)c3ccccc3n2)CC1 [sotrastaurin]
In short: as §1

alvocidib = compound: CN1CC[C@H](c2c(O)cc(O)c3c(=O)cc(-c4ccccc4Cl)oc23)[C@H](O)C1 [alvocidib]
In short: as §1

Tubastatin A = compound: CN1CCc2c(c3ccccc3n2Cc2ccc(C(=O)NO)cc2)C1 [Tubastatin A]
In short: as §1

[6] = compound: CNC(=O)C1=CC=CC=C1NC2=NC(=NC=C2Cl)NC3=C(C=C(C=C3)N4CCOCC4)OC
In short: as §1

defactinib = compound: CNC(=O)c1ccc(Nc2ncc(C(F)(F)F)c(NCc3nccnc3N(C)S(C)(=O)=O)n2)cc1 [defactinib]
In short: as §1

[7] = compound: CNc1nc(-c2ccc3c(N)n[nH]c3c2)cc(N2C[C@@H](C(=O)NC3CCCCC3)CC[C@H]2C)n1
In short: as §1

encorafenib = compound: COC(=O)N[C@@H](C)CNc1nccc(-c2cn(C(C)C)nc2-c2cc(Cl)cc(NS(C)(=O)=O)c2F)n1 [encorafenib]
In short: as §1

[8] = compound: COC(=O)[C@H](CCSC)NC(=O)C1=C(C=C(C=C1)NC[C@H](CS)N)C2=CC=CC=C2
In short: as §1

alisertib = compound: COc1cc(Nc2ncc3c(n2)-c2ccc(Cl)cc2C(c2c(F)cccc2OC)=NC3)ccc1C(=O)O [alisertib]
In short: as §1

[9] = compound: COc1cc2nc(-c3cc(F)ccc3O)nc(N[C@@H]3CNC[C@H]3C(C)(C)O)c2cc1OC
In short: as §1

gefitinib = compound: COc1cc2ncnc(Nc3ccc(F)c(Cl)c3)c2cc1OCCCN1CCOCC1 [gefitinib]
In short: as §1

Measured: log2 fold change

PGAM4 (UniProt Q8N0Y7)
inactive: vemurafenib -0.012 | [1] -0.01 | barasertib -0.045 | [2] 0.068 | volasertib 0.051 | [3] -0.07 | [4] 0.012 | [5] 0.015 | saracatinib -0.012 | sotrastaurin -0.007 | alvocidib 0.016 | Tubastatin A 0.056 | [6] -0.008 | defactinib -0.006 | [7] 0.036 | encorafenib -0.008 | [8] -0.017 | alisertib 0.028 | [9] 0.014 | gefitinib -0.054

PFN3 (UniProt P60673)
active: [4] -0.706
inactive: vemurafenib 0.059 | [1] 0 | [2] 0.112 | volasertib 0.056 | [5] 0.109 | sotrastaurin 0.042 | alvocidib -0.182 | defactinib -0.109 | encorafenib 0.125 | [8] -0.28 | alisertib -0.047 | [9] 0.154 | gefitinib 0.075

PFKFB4 (UniProt Q16877)
inactive: vemurafenib 0.021 | [1] 0.005 | barasertib 0.087 | [2] 0.015 | volasertib -0.068 | [3] -0.011 | [4] 0.014 | [5] 0.007 | saracatinib 0.077 | sotrastaurin 0.043 | alvocidib -0.03 | Tubastatin A -0.009 | [6] 0.029 | defactinib 0.011 | [7] -0.027 | encorafenib 0.02 | [8] -0.019 | [9] -0.016

PCNX3 (UniProt Q9H6A9)
inactive: vemurafenib -0.034 | [1] 0.176 | barasertib 0.067 | [2] 0.026 | volasertib 0.158 | [4] -0.024 | [5] -0.218 | saracatinib 0.078 | sotrastaurin -0.086 | alvocidib 0.035 | defactinib -0.054 | [7] -0.127 | encorafenib -0.019 | [8] 0.02 | [9] 0.043

PCLAF (UniProt Q15004)
inactive: vemurafenib -0.016 | barasertib -0.068 | [2] 0.057 | [3] -0.033 | [4] -0.067 | [5] 0.121 | saracatinib -0.013 | sotrastaurin 0.011 | alvocidib -0.005 | Tubastatin A 0.041 | [6] 0.017 | defactinib 0.014 | [7] 0.056 | encorafenib 0.005 | [8] -0.077 | alisertib -0.097 | gefitinib 0.001

PAXIP1 (UniProt Q6ZW49)
inactive: vemurafenib -0.036 | [1] 0.037 | barasertib 0.046 | [2] 0.02 | volasertib -0.04 | [3] 0 | [4] 0.043 | [5] -0.008 | saracatinib -0.01 | sotrastaurin 0.038 | alvocidib -0.05 | Tubastatin A -0.062 | [6] 0.017 | defactinib -0.048 | [7] 0.018 | encorafenib 0.016 | [8] 0.095 | alisertib 0.01 | [9] 0.058 | gefitinib 0.036

PDIA5 (UniProt Q14554)
inactive: vemurafenib 0.018 | [1] 0.013 | barasertib -0.006 | [2] 0.012 | volasertib 0.014 | [3] -0.017 | [4] -0.07 | [5] -0.01 | saracatinib -0.002 | sotrastaurin 0.022 | alvocidib -0.02 | Tubastatin A 0.028 | [6] 0.013 | defactinib 0.004 | [7] -0.011 | encorafenib -0.009 | [8] -0.056 | alisertib 0.012 | [9] -0.01 | gefitinib -0.041

PCBD1 (UniProt P61457)
inactive: vemurafenib -0.002 | [1] 0.003 | barasertib 0.041 | [2] 0.062 | volasertib 0.03 | [3] -0.05 | [4] -0.085 | [5] 0.001 | saracatinib 0.022 | sotrastaurin 0.044 | alvocidib -0.029 | Tubastatin A 0.08 | [6] 0.011 | defactinib -0.019 | [7] 0.016 | encorafenib -0.021 | [8] 0 | alisertib 0.062 | [9] 0.024 | gefitinib 0.027

PFKFB3 isoform 4 (UniProt Q16875)
inactive: vemurafenib -0.022 | [1] 0.134 | barasertib 0.003 | [2] -0.003 | volasertib 0.067 | [3] 0.037 | [4] 0.003 | [5] -0.046 | saracatinib -0.024 | sotrastaurin 0.034 | alvocidib -0.012 | Tubastatin A -0.05 | [6] 0.058 | defactinib -0.006 | [7] 0.012 | encorafenib 0.041 | [8] -0.137 | alisertib -0.01 | [9] 0 | gefitinib -0.01

Reprinted at random: two entries already listed, in no set order.
PDIA5 (UniProt Q14554)
inactive: vemurafenib 0.018 | [1] 0.013 | barasertib -0.006 | [2] 0.012 | volasertib 0.014 | [3] -0.017 | [4] -0.07 | [5] -0.01 | saracatinib -0.002 | sotrastaurin 0.022 | alvocidib -0.02 | Tubastatin A 0.028 | [6] 0.013 | defactinib 0.004 | [7] -0.011 | encorafenib -0.009 | [8] -0.056 | alisertib 0.012 | [9] -0.01 | gefitinib -0.041

PCBD1 (UniProt P61457)
inactive: vemurafenib -0.002 | [1] 0.003 | barasertib 0.041 | [2] 0.062 | volasertib 0.03 | [3] -0.05 | [4] -0.085 | [5] 0.001 | saracatinib 0.022 | sotrastaurin 0.044 | alvocidib -0.029 | Tubastatin A 0.08 | [6] 0.011 | defactinib -0.019 | [7] 0.016 | encorafenib -0.021 | [8] 0 | alisertib 0.062 | [9] 0.024 | gefitinib 0.027

Later entries:

PDCD4 (UniProt Q53EL6)
inactive: vemurafenib 0.014 | [1] 0.02 | barasertib 0.024 | [2] -0.023 | volasertib -0.03 | [3] 0.029 | [4] -0.029 | [5] -0.013 | saracatinib 0.009 | sotrastaurin 0.001 | alvocidib 0.01 | Tubastatin A -0.033 | [6] 0.017 | defactinib 0.002 | [7] 0.019 | encorafenib 0.019 | [8] -0.034 | alisertib -0.005 | [9] 0.015 | gefitinib -0.003

PFKFB1 (UniProt P16118)
inactive: vemurafenib -0.105 | [1] 0.143 | barasertib -0.032 | [2] 0.1 | volasertib 0.038 | [3] -0.074 | [4] -0.021 | [5] 0.01 | saracatinib 0.003 | alvocidib 0.054 | Tubastatin A -0.026 | [6] 0.097 | defactinib 0.005 | [7] 0.149 | encorafenib 0.094 | [8] -0.052 | [9] 0.099

PEX2 (UniProt P28328)
inactive: vemurafenib 0.079 | [1] -0.047 | barasertib 0.174 | volasertib 0.024 | [3] 0.052 | [4] 0.011 | [5] 0.024 | saracatinib -0.086 | sotrastaurin 0.036 | alvocidib -0.041 | Tubastatin A -0.104 | [6] 0.172 | defactinib 0.181 | [7] 0.118 | alisertib 0.115 | [9] 0.116 | gefitinib -0.372

PCMTD1 (UniProt Q96MG8)
inactive: vemurafenib -0.05 | [2] -0.007 | defactinib -0.006 | encorafenib -0.022 | [8] -0.053

PFN1 (UniProt I3L3D5)
active: [4] 0.924
inactive: [1] -0.142 | barasertib 0.241 | [2] -0.01 | volasertib -0.107 | [3] -0.067 | [5] -0.135 | alvocidib 0.045 | Tubastatin A -0.01 | encorafenib 0.157 | [8] 0.058 | alisertib 0.028 | [9] -0.195 | gefitinib 0.062

PCM1 isoform 5 (UniProt Q15154)
inactive: [2] -0.022 | sotrastaurin 0.009 | encorafenib -0.01 | [8] -0.107

PDE3B (UniProt Q13370)
inactive: [3] 0 | [4] 0.074 | [5] -0.035 | saracatinib 0.039 | alvocidib 0.158 | Tubastatin A -0.01 | [7] -0.108

PGAP2 isoform 2 (UniProt Q9UHJ9)
inactive: [2] -0.055 | encorafenib 0.12 | [8] 0.17

PER2 (UniProt O15055)
inactive: vemurafenib 0.027 | [4] -0.339 | [5] 0.031 | alvocidib -0.032 | defactinib 0.044
